The values below come from PubChem BioAssay AID330 (DTP/NCI, 2004).

This experiment concerns P388 leukemia ip, CD2F1 mice, survival T/C. The experiment can be described thus: NCI In Vivo Anticancer Drug Screen. Data for tumor model P388 Leukemia (intraperitoneal) in CD2F1 (CDF1) mice. The conditions noted are these: T/C endpoint: median survival time, higher T/C = longer survival.
Setting [1] is: dose: 25.0 mg/kg/injection, schedule: Q01DX005 (ip), vehicle: Klucel (hydroxypropylcellulose) (HPC).
Setting [2] is: dose: 50.0 mg/kg/injection, schedule: Q01DX005 (ip), vehicle: Klucel (hydroxypropylcellulose) (HPC).
The mark [3] stands for this setting: dose: 100.0 mg/kg/injection, schedule: Q01DX005 (ip), vehicle: Klucel (hydroxypropylcellulose) (HPC).
Where [4] appears, read: dose: 200.0 mg/kg/injection, schedule: Q01DX005 (ip), vehicle: Klucel (hydroxypropylcellulose) (HPC).
Where [5] appears, read: dose: 200.0 mg/kg/injection, schedule: Q04DX003 (ip), vehicle: saline with Tween-80.
The mark [6] stands for this setting: dose: 100.0 mg/kg/injection, schedule: Q01DX009 (ip), vehicle: saline.
Where [7] appears, read: dose: 400.0 mg/kg/injection, schedule: Q01DX009 (ip), vehicle: saline with Tween-80.
The mark [8] stands for this setting: dose: 200.0 mg/kg/injection, schedule: Q01DX009 (ip), vehicle: saline with Tween-80.
[9] abbreviates: dose: 100.0 mg/kg/injection, schedule: Q01DX009 (ip), vehicle: saline with Tween-80.
Where [10] appears, read: dose: 240.0 mg/kg/injection, schedule: Q01DX005 (ip), vehicle: saline with Tween-80.

The list is a part of this screen's results and no random one: it gathers tests that were run many times, whatever their T/C, doses with no T/C, and many T/C values between a quarter and a half above the control. Further doses and runs are listed elsewhere. T/C is the treated group as % of the vehicle group. Some entries give survivors of the animals treated and no T/C: the source holds a T/C of zero for them, seemingly a mark for toxic or unscored doses. Some survivor counts are full or nearly so, which does not show that the dose was tolerated: survival well below the control is almost never listed, so the zero probably covers shortened survival too. Counts of survivors are from the toxicity check (mostly the fifth day) where no day follows; animals may have died later. Schedule codes are those of the source, read here as Q, the interval in days (D) or hours (H), X, the number of doses. Brackets with × say how often a value occurs here. Where survival is the endpoint, this PubChem deposit counts one and a half times the control or more as active, and values a quarter to a half above the control carry no call in these data; other NCI protocols may use other cut-offs. Some entries were tested several times; their values stand side by side, smallest first. Some T/C values carry the count of animals alive at the toxicity check (mostly the fifth day); where none is given, no animal had died by that day.

For the compound `COC1OC2COC(c3ccccc3)OC2C(O)[CH]1[Hg][O]C(C)=O` (configuration not stated), the survivor count by setting is: (dose: 3.13 mg/kg/injection, schedule: Q01DX009 (ip), vehicle: water) 5 of 5; (dose: 6.25 mg/kg/injection, schedule: Q01DX009 (ip), vehicle: water) 5 of 5; (dose: 12.5 mg/kg/injection, schedule: Q01DX009 (ip), vehicle: water) 3 of 5; (dose: 25.0 mg/kg/injection, schedule: Q01DX009 (ip), vehicle: distilled water + Tween-80) 2 of 6; (dose: 25.0 mg/kg/injection, schedule: Q01DX009 (ip), vehicle: water) 0 of 5; (dose: 50.0 mg/kg/injection, schedule: Q01DX009 (ip), vehicle: distilled water + Tween-80) 0 of 6. Besides, the survivor count (dose: 50.0 mg/kg/injection, schedule: Q01DX009 (ip), vehicle: water) is reported as 0 of 5.

As for `CCCCN(CCCC)C(=N)/C=C/c1ccccc1`, the survivor count by setting is: under setting [1], 0 of 5; under setting [2], 0 of 5; under setting [3], 0 of 5; under setting [4], 0 of 5.

In the case of `COP(=O)(O)OC.[V]`, the survivor count by setting is: under setting [5], 5 of 6; (dose: 400.0 mg/kg/injection, schedule: Q04DX003 (ip), vehicle: saline with Tween-80) 1 of 6.

For the compound `COC(=O)c1cc(O)c2c(c1C(=O)OC)C[C@H]1[C@@H]3CCC4=CC(=O)CC[C@]4(C)[C@H]3CC[C@]21C`, the survivor count reads like this: (dose: 6.0 mg/kg/injection, schedule: Q01DX005 (ip), vehicle: saline with Tween-80) 6 of 6; (dose: 12.5 mg/kg/injection, schedule: Q01DX005 (ip), vehicle: saline with Tween-80) 6 of 6; (dose: 25.0 mg/kg/injection, schedule: Q01DX005 (ip), vehicle: saline with Tween-80) 6 of 6; (dose: 50.0 mg/kg/injection, schedule: Q01DX005 (ip), vehicle: saline with Tween-80) 6 of 6; (dose: 100.0 mg/kg/injection, schedule: Q01DX005 (ip), vehicle: saline with Tween-80) 6 of 6.

Turning to `C=CC(=O)N(C)c1nc(N(C)C)nc(N(C)C)n1`, under setting [4], the survivor count is reported as 0 of 6.

Regarding `Cc1cc(C)c(OC(=O)N(CCCl)N=O)c(C)c1`, the T/C (dose: 12.5 mg/kg/injection, schedule: Q01DX001 (ip), vehicle: saline with Tween-80) was 125 % of control; the T/C (dose: 25.0 mg/kg/injection, schedule: Q01DX001 (ip), vehicle: saline with Tween-80) is 126 % of control; the T/C (dose: 50.0 mg/kg/injection, schedule: Q01DX001 (ip), vehicle: saline with Tween-80) was 131 % of control.

As for `CC1CCC(C)(C(O)c2ccc(C(O)C3(C)CCC(C)C3(C)C)cc2)C1(C)C` (configuration not stated), the survivor count under setting [6] is on record as 3 of 6 and the survivor count (dose: 200.0 mg/kg/injection, schedule: Q01DX009 (ip), vehicle: suspension in saline) is 3 of 6.

On to `COc1cccc(CN2CCCNCC2)c1`, for which the survivor count (dose: 100.0 mg/kg/injection, schedule: Q01DX009 (ip), vehicle: water) is reported as 3 of 6.

In the case of `S=C1SCN(Cc2ccccc2)CN1Cc1ccccc1`, the survivor count under setting [7] is reported as 6 of 6.

As to `CC(O)C1/C=C/C=C\C(=O)O[C@@H]2C[C@H]3OC4C5OC5(C)CCC4(COC(=O)C4O[C@@]4(C)CCO1)[C@]2(C)[C@]31CO1` (some centres not stated), the T/C (dose: 5.0 mg/kg/injection, schedule: Q01DX009 (ip), vehicle: Klucel (hydroxypropylcellulose) (HPC)) was 128 % of control; the T/C (dose: 10.0 mg/kg/injection, schedule: Q01DX009 (ip), vehicle: Klucel (hydroxypropylcellulose) (HPC)) is 129 % of control; the T/C (dose: 20.0 mg/kg/injection, schedule: Q01DX009 (ip), vehicle: Klucel (hydroxypropylcellulose) (HPC)) is 126 % of control.

On to `CC(C)Cc1nccs1`, for which the T/C under setting [8] is 125 % of control [5 of 6 alive].

`COc1cccc2c1C(=O)c1c(O)c3c(c(O)c1C2=O)C[C@@](O)(C(=O)CO)C[C@@H]3OC1CC(NC(=S)Nc2ccc3ccccc3c2)C(O)C(C)O1` (some centres not stated): the T/C was 126 % of control under setting [6] and 133 % of control (dose: 200.0 mg/kg/injection, schedule: Q01DX009 (ip), vehicle: saline).

Consider `N#CC(C(=O)C(=O)Nc1cccc(C(F)(F)F)c1)c1ccccc1` (configuration not stated), for which, under “dose: 200.0 mg/kg/injection, schedule: Q01DX005 (ip), vehicle: saline with Tween-80”, the survivor count is 0 of 6.

For `COc1cc([C@H]2OC[C@H]3[C@@H]2CO[C@@H]3c2ccc(OC(C)=O)c(OC)c2)ccc1OC(C)=O`, the survivor count is 6 of 6 under setting [2], 5 of 5 under setting [3] and 5 of 5 under setting [4].

Consider `CCOc1ccc(-c2nc(Cl)nc(Cl)n2)c2ccccc12`, for which the survivor count (dose: 240.0 mg/kg/injection, schedule: Q01DX005 (ip), vehicle: Klucel (hydroxypropylcellulose) (HPC)) is reported as 2 of 6.

Regarding `O=S(=O)(F)c1nc(Cl)c2[nH]cnc2n1`, the survivor count was 0 of 6 under setting [3] and 0 of 6 under setting [4].

Take `CCC[CH2][Sn]([CH2]CCC)([S]C#N)[S]C#N`: the T/C is 125 and 126 % of control (dose: 0.75 mg/kg/injection, schedule: Q01DX009 (ip), vehicle: saline with Tween-80); 127 and 128 % of control (dose: 1.5 mg/kg/injection, schedule: Q01DX009 (ip), vehicle: saline with Tween-80). Moreover, the survivor count reads like this: (dose: 6.0 mg/kg/injection, schedule: Q01DX009 (ip), vehicle: saline with Tween-80) 3 of 6; (dose: 12.0 mg/kg/injection, schedule: Q01DX009 (ip), vehicle: saline with Tween-80) 0 of 6.

Take `Cc1cc(N(CCCl)CCCl)ccc1C=Nc1ccc(F)cc1`: the T/C reads like this: under setting [9], 140 % of control; under setting [5], 127 % of control.

Consider `COC(=O)C(F)C(Br)C(=O)OC` (configuration not stated), for which the T/C (dose: 25.0 mg/kg/injection, schedule: Q01DX009 (ip), vehicle: saline with Tween-80) was 131 % of control and the T/C (dose: 50.0 mg/kg/injection, schedule: Q01DX009 (ip), vehicle: saline with Tween-80) was 136 % of control. Moreover, the survivor count by setting is: under setting [9], 3 of 6 (2×); under setting [8], 0 of 6 (2×); under setting [7], 0 of 6.

As to `O=C(c1ccc([N+](=O)[O-])cc1)C(Br)C(Br)c1ccncc1` (configuration not stated), the survivor count (dose: 400.0 mg/kg/injection, schedule: Q01DX009 (ip), vehicle: other) is 3 of 6.

Consider `CCN(CC)CCCNc1cc(C)c2cc(OC)ccc2n1`, for which the survivor count is 1 of 6 (dose: 100.0 mg/kg/injection, schedule: Q01DX001 (ip), vehicle: saline with Tween-80); 0 of 6 (dose: 200.0 mg/kg/injection, schedule: Q01DX001 (ip), vehicle: saline with Tween-80); 0 of 6 (dose: 400.0 mg/kg/injection, schedule: Q01DX001 (ip), vehicle: saline with Tween-80).

As for `CC(C)(C)C1CC=CC(=O)CC1` (configuration not stated), the survivor count (dose: 400.0 mg/kg/injection, schedule: Q01DX009 (ip), vehicle: Klucel (hydroxypropylcellulose) (HPC)) is 0 of 6.

Turning to `CCC1(c2ccc(C)cc2)C(=O)NC(=S)NC1=O`, the survivor count under setting [10] is given as 3 of 6.

As to `COc1cccc(Oc2cccc[n+]2CC(C)=O)c1`, the survivor count (dose: 100.0 mg/kg/injection, schedule: Q01DX005 (ip), vehicle: saline) is reported as 1 of 5.

Turning to `CNC(=O)OCc1ccc(NCCN(C)C)c2c(=O)c3cc(O)ccc3oc12`, the survivor count is, setting by setting: (dose: 6.25 mg/kg/injection, schedule: Q01DX005 (ip), vehicle: Klucel (hydroxypropylcellulose) (HPC)) 3 of 6; (dose: 12.5 mg/kg/injection, schedule: Q01DX005 (ip), vehicle: Klucel (hydroxypropylcellulose) (HPC)) 1 of 6; under setting [1], 0 of 6; under setting [2], 0 of 6.

Take `C=C1C(=O)C(CCCC)=C(CCC)C1O` (configuration not stated): under setting [10], the survivor count is recorded as 0 of 6.
